# Results from the supplement of paper PMC12823440, “Inhibitors supercharge kinase turnover through native proteolytic circuits” (Nature, 2025).
# Protein sequences, listed by entry. Tags and fused reporters are not part of them. Lines headed by an entry give the natural chain unless they say otherwise; changes in a name come on top.
# UniProt O15530: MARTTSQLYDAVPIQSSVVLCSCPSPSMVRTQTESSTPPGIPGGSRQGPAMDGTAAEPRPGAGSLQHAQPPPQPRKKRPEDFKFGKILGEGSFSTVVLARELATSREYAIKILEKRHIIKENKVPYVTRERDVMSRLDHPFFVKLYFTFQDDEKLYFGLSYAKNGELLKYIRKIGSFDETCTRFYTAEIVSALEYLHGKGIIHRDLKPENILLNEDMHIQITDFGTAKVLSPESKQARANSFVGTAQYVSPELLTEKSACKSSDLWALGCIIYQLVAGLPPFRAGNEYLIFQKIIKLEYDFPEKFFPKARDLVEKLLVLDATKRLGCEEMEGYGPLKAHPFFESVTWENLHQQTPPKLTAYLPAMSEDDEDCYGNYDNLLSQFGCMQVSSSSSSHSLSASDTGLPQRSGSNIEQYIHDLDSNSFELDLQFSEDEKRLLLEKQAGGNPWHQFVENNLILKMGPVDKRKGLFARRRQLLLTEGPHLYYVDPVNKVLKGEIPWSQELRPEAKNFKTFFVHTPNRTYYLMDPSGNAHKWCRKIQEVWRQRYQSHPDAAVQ
# UniProt Q9UBF8: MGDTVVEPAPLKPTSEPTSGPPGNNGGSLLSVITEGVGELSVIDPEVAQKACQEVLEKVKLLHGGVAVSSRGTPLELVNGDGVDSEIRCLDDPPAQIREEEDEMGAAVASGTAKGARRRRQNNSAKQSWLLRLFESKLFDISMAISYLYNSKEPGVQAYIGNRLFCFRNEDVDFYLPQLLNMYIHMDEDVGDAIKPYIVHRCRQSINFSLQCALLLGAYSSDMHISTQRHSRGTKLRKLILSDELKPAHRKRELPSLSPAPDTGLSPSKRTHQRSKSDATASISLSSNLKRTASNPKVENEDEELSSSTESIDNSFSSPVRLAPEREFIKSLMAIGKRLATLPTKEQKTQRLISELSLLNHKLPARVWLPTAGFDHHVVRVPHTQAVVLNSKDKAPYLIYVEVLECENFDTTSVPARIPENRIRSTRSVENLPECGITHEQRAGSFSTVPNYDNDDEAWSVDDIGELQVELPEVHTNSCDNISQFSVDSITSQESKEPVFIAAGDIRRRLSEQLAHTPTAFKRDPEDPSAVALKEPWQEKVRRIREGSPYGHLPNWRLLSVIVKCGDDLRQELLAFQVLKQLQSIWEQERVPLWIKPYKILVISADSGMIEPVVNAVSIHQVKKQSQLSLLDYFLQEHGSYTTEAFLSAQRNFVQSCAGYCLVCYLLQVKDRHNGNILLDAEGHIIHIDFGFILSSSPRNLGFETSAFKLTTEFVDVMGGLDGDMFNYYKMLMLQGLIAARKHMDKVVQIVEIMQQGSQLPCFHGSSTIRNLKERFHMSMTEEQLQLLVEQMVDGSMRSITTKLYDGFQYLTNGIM
# UniProt P53350, whole entry: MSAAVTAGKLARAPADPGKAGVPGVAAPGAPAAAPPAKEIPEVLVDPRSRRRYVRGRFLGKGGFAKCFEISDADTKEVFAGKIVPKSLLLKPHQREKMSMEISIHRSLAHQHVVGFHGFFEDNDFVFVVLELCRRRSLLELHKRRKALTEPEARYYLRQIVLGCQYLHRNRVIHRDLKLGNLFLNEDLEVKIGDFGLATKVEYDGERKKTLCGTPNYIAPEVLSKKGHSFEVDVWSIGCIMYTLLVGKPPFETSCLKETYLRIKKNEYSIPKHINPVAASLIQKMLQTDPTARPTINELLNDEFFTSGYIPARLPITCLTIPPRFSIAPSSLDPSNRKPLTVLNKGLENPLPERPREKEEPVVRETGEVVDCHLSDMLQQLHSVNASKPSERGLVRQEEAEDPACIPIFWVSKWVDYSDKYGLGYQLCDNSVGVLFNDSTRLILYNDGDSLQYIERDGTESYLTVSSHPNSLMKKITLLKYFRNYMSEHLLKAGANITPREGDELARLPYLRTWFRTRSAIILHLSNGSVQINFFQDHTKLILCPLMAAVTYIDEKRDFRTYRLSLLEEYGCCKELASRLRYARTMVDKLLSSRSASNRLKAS
# UniProt Q13131: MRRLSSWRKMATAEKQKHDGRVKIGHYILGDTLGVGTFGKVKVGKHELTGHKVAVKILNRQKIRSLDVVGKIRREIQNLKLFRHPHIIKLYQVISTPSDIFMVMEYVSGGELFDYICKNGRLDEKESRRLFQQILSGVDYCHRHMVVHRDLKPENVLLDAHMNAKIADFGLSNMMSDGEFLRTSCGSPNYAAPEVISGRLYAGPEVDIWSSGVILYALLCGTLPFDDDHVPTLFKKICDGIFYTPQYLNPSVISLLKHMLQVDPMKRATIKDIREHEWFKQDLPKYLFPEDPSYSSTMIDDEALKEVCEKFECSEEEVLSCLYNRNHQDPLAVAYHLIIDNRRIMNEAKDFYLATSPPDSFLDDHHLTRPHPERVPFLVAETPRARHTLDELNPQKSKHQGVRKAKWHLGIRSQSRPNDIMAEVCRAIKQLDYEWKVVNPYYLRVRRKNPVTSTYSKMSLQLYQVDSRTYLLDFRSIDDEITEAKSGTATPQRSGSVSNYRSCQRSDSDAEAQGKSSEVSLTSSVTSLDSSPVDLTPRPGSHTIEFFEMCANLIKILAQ
# UniProt Q05397, whole entry, looked up: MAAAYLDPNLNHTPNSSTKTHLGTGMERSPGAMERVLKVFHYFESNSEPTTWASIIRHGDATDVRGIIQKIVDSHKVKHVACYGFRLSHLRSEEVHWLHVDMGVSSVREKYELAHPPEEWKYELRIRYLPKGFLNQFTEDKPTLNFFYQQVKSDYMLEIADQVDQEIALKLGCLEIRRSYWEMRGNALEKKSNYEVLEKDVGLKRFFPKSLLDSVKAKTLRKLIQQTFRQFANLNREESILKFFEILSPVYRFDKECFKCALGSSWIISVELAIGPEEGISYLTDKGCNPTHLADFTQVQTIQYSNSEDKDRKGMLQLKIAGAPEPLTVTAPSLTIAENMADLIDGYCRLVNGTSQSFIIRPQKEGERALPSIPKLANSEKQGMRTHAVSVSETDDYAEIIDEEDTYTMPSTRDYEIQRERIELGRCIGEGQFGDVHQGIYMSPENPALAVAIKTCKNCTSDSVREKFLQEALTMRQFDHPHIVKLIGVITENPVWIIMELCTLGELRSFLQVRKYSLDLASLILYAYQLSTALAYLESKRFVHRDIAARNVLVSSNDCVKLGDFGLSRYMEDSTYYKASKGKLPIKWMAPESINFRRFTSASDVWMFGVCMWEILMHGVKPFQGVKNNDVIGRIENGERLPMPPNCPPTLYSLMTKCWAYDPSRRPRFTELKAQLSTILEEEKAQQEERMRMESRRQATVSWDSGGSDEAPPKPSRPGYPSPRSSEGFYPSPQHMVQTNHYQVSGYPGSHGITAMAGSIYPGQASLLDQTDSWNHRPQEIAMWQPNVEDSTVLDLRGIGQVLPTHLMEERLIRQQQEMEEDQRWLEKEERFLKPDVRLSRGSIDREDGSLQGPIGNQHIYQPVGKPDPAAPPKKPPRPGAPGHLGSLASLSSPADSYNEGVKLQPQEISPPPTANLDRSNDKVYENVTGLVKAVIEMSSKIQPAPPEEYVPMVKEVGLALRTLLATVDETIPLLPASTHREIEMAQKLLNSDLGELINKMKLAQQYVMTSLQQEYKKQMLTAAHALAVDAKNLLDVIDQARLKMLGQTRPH
# UniProt Q14289, whole entry, looked up: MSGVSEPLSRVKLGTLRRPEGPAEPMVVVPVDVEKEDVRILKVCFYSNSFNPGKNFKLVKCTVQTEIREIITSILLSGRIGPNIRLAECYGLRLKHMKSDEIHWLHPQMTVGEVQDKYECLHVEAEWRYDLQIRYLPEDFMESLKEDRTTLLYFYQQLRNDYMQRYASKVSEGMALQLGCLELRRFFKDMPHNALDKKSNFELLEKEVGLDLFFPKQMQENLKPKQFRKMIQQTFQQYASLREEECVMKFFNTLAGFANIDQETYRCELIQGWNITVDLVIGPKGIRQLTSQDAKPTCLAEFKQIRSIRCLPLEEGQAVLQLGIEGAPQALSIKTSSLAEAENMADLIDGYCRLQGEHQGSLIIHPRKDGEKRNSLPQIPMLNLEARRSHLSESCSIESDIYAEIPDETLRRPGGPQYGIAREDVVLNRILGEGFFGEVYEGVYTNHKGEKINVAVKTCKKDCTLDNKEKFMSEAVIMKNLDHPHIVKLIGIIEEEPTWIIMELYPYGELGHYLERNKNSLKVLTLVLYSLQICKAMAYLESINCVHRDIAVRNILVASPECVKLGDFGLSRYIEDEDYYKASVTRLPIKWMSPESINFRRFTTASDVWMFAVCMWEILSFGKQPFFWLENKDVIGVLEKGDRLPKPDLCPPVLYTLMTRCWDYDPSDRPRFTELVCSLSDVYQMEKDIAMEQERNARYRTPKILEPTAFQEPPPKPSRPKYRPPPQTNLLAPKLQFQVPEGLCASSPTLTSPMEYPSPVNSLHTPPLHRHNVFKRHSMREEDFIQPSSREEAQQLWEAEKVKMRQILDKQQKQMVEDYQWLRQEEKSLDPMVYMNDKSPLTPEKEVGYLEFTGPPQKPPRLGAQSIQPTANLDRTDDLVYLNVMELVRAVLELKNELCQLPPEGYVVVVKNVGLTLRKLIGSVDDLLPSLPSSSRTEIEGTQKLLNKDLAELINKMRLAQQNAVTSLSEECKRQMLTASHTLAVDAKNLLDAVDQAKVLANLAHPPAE
# Counter-ions that a name gives are not always drawn. The list shows a part of the results. Hit calls seldom repeat between salt and free forms of one compound.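 Kinases, fused to nanoluciferase, were expressed in K562 cells; luminescence was measured every 4 h from 2 to 18 h as percent of control (DMSO = 100%, positive control = 0%). A time point is decreased if signal falls significantly (2 sigma). Hits were called by the authors by a rule that is not shown; the count of time points alone does not decide it.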
# Columns and labels:
# Assay in all cases: kinase-Nluc reporter destabilization hit call (1 = scored as downregulated) (binary); higher = compound decreases kinase abundance
# Settings in all cases: K562; 2-18 h
# PDPK1 = PDPK1 (UniProt O15530)
# PIK4CA = PIK4CA (UniProt P42356)
# PIK4CB = PIK4CB (UniProt Q9UBF8)
# PLK1 = PLK1 (UniProt P53350)
# PRKAA1 = PRKAA1 (UniProt Q13131)
# PRKCA = PRKCA (UniProt P17252)
# PTK2 = PTK2 (UniProt Q05397)
# PTK2B = PTK2B (UniProt Q14289)
# RAF1 = RAF1 (UniProt P04049)
# [1] = target: RAF1_S257L (clone: RAF1_mut) (UniProt P04049)
SMILES,kinase-Nluc reporter destabilization hit call (PDPK1),kinase-Nluc reporter destabilization hit call (PIK4CA),kinase-Nluc reporter destabilization hit call (PIK4CB),kinase-Nluc reporter destabilization hit call (PLK1),kinase-Nluc reporter destabilization hit call (PRKAA1),kinase-Nluc reporter destabilization hit call (PRKCA),kinase-Nluc reporter destabilization hit call (PTK2),kinase-Nluc reporter destabilization hit call (PTK2B),kinase-Nluc reporter destabilization hit call (RAF1),kinase-Nluc reporter destabilization hit call [1]
Cn1nccc1Nc1nccc(-c2cc3c(s2)C(C)(C)N(CCN2CCOCC2)C3=O)n1 (10 µM),inactive: 0,inactive: 0,inactive: 0,inactive: 0,inactive: 0,inactive: 0,inactive: 0,inactive: 0,inactive: 0,inactive: 0
CS(=O)(=O)c1ccc(-c2noc(C(F)(F)F)c2-c2ccccc2)cc1 (10 µM),inactive: 0,inactive: 0,inactive: 0,inactive: 0,inactive: 0,inactive: 0,inactive: 0,inactive: 0,inactive: 0,inactive: 0
CCn1c(C(=O)N(C2CC2)C2CC2)cc2c3c(ncn3C)c(Nc3cc(C)n(C)n3)nc21 (10 µM),inactive: 0,inactive: 0,inactive: 0,inactive: 0,inactive: 0,inactive: 0,inactive: 0,inactive: 0,inactive: 0,inactive: 0
COCCO[C@@H]1[C@H](O)[C@@H](CO)O[C@H]1n1cnc2c(=O)[nH]c(N)nc21 [2′-O-(2-Methoxyethyl)guanosine] (10 µM),inactive: 0,inactive: 0,inactive: 0,inactive: 0,inactive: 0,inactive: 0,inactive: 0,inactive: 0,inactive: 0,inactive: 0
O=c1cc(O)cc(/C=C/c2ccc(O)c(O)c2)o1 [Hispidin] (10 µM),inactive: 0,inactive: 0,inactive: 0,inactive: 0,inactive: 0,inactive: 0,inactive: 0,inactive: 0,inactive: 0,inactive: 0
O=C(Nc1cccnc1)c1cc(C(=O)c2c(F)cccc2Br)c[nH]1 (10 µM),inactive: 0,inactive: 0,inactive: 0,inactive: 0,inactive: 0,inactive: 0,inactive: 0,inactive: 0,inactive: 0,inactive: 0
O=C(/C=C/c1ccc(O[C@@H]2O[C@H](CO)[C@@H](O)[C@H](O)[C@H]2O[C@@H]2OC[C@](O)(CO)[C@H]2O)cc1)c1ccc(O)cc1O [Isoliquiritin apioside] (10 µM),inactive: 0,inactive: 0,inactive: 0,inactive: 0,inactive: 0,inactive: 0,inactive: 0,inactive: 0,inactive: 0,inactive: 0
Nc1ncnc2c1c(-c1ccc(Oc3ccccc3)cc1)nn2C1CCNCC1 [N-piperidine Ibrutinib (hydrochloride)] (10 µM),inactive: 0,inactive: 0,inactive: 0,inactive: 0,inactive: 0,inactive: 0,inactive: 0,inactive: 0,inactive: 0,inactive: 0
CC(=O)c1c(C)c2cnc(Nc3ccc(N4CCN(CCCCNC(=O)COc5cccc6c5C(=O)N(C5CCC(=O)NC5=O)C6=O)CC4)cn3)nc2n(C2CCCC2)c1=O (stereo not given) (10 µM),inactive: 0,inactive: 0,inactive: 0,inactive: 0,inactive: 0,inactive: 0,inactive: 0,inactive: 0,inactive: 0,inactive: 0
Cn1cc(Nc2nccc(N3C[C@H]4CC[C@@H](C3)N4C(=O)[C@@H]3CC3(F)F)n2)cn1 (10 µM),inactive: 0,inactive: 0,inactive: 0,inactive: 0,inactive: 0,inactive: 0,inactive: 0,inactive: 0,inactive: 0,inactive: 0
COc1ccc2c(c1O)OC(C)(C)c1c-2ccc2c1C(=O)N(c1ccc(C(=O)c3ccccc3)cc1)C2=O [Ampkinone] (10 µM),inactive: 0,inactive: 0,inactive: 0,inactive: 0,inactive: 0,inactive: 0,inactive: 0,inactive: 0,inactive: 0,inactive: 0
N#Cc1cccc(-c2c[nH]c3ncnc(N4CCOCC4)c23)c1 (10 µM),inactive: 0,inactive: 0,inactive: 0,inactive: 0,inactive: 0,inactive: 0,inactive: 0,inactive: 0,inactive: 0,inactive: 0
COc1cccc(-n2c(=O)[nH]c3cc(Cl)n(-c4ccc(-c5cccc(OC)c5O)cc4)c3c2=O)c1 (2.5 µM),inactive: 0,inactive: 0,inactive: 0,inactive: 0,inactive: 0,inactive: 0,inactive: 0,inactive: 0,inactive: 0,inactive: 0
CN1CCN(c2ccc(Nc3ncc4nc(Nc5ccccc5)n([C@@H]5CCN(S(=O)(=O)C6CC6)C5)c4n3)cc2)CC1 (2.5 µM),inactive: 0,inactive: 0,inactive: 0,inactive: 0,inactive: 0,inactive: 0,inactive: 0,inactive: 0,inactive: 0,inactive: 0
CN(C)CCN(Cc1ccc(Cl)cc1)c1ccccn1 [Chloropyramine hydrochloride] (10 µM),inactive: 0,inactive: 0,inactive: 0,inactive: 0,inactive: 0,inactive: 0,inactive: 0,inactive: 0,inactive: 0,inactive: 0
Cc1cc(O)c(C(C)C)cc1N=O [Poloxime] (10 µM),inactive: 0,inactive: 0,inactive: 0,inactive: 0,inactive: 0,inactive: 0,inactive: 0,inactive: 0,inactive: 0,inactive: 0
C[C@@H]1O[C@@H](O[C@H]2[C@H](Oc3cc(O)c4c(=O)cc(-c5ccc(O)cc5)oc4c3)O[C@H](CO)[C@@H](O)[C@@H]2O)[C@H](O)[C@H](O)[C@H]1O [Rhoifolin] (10 µM),inactive: 0,inactive: 0,inactive: 0,inactive: 0,inactive: 0,inactive: 0,inactive: 0,inactive: 0,inactive: 0,inactive: 0
Cc1cc([C@H](C)Nc2ccccc2)c2oc(N3CCOCC3)cc(=O)c2c1 (10 µM),inactive: 0,inactive: 0,inactive: 0,inactive: 0,inactive: 0,inactive: 0,inactive: 0,inactive: 0,inactive: 0,inactive: 0
O=C(Nc1nc2ccccc2[nH]1)c1cccc(-n2cccc2)c1 (10 µM),inactive: 0,inactive: 0,inactive: 0,inactive: 0,inactive: 0,inactive: 0,inactive: 0,inactive: 0,inactive: 0,inactive: 0
NC1(Cc2ccc(Cl)cc2)CCN(c2ncnc3[nH]ccc23)CC1 (10 µM),inactive: 0,inactive: 0,inactive: 0,inactive: 0,inactive: 0,inactive: 0,inactive: 0,inactive: 0,inactive: 0,inactive: 0
Cc1ccc(NC(=S)NNc2c([N+](=O)[O-])cc(C(F)(F)F)cc2[N+](=O)[O-])cc1Cl (10 µM),inactive: 0,inactive: 0,inactive: 0,inactive: 0,inactive: 0,inactive: 0,inactive: 0,inactive: 0,inactive: 0,inactive: 0
Fc1ccc(-c2nc(-c3c(F)cccc3F)[nH]c2-c2ccncc2)cc1 (10 µM),inactive: 0,inactive: 0,inactive: 0,inactive: 0,inactive: 0,inactive: 0,inactive: 0,inactive: 0,inactive: 0,inactive: 0
COCCOc1ccc(-c2cn(-c3ccccc3)c3nc[nH]c(=O)c23)cc1 (10 µM),inactive: 0,inactive: 0,inactive: 0,inactive: 0,inactive: 0,inactive: 0,inactive: 0,inactive: 0,inactive: 0,inactive: 0
CCN(CC)S(=O)(=O)c1ccc(OC)c(N2CCN(C(=O)c3ccc(F)cc3C(F)(F)F)CC2)c1 (10 µM),inactive: 0,inactive: 0,inactive: 0,inactive: 0,inactive: 0,inactive: 0,inactive: 0,inactive: 0,inactive: 0,inactive: 0
O=C(NCCO)c1ccc2c(c1)nc(Nc1cccc(Cl)c1)c1ccncc12 [CK2 inhibitor 2] (10 µM),inactive: 0,inactive: 0,inactive: 0,inactive: 0,inactive: 0,inactive: 0,inactive: 0,inactive: 0,inactive: 0,inactive: 0
C=CC(=O)Nc1cccc(C)c1Nc1ncc2cc(-c3c(Cl)c(OC)cc(OC)c3Cl)ccc2n1 (2.5 µM),inactive: 0,inactive: 0,inactive: 0,inactive: 0,inactive: 0,inactive: 0,inactive: 0,inactive: 0,inactive: 0,active: 1

# Copied from the list.
# `N#Cc1cccc(-c2c[nH]c3ncnc(N4CCOCC4)c23)c1` (10 µM) | kinase-Nluc reporter destabilization hit call (PIK4CB): inactive: 0
# `C=CC(=O)Nc1cccc(C)c1Nc1ncc2cc(-c3c(Cl)c(OC)cc(OC)c3Cl)ccc2n1` (2.5 µM) | kinase-Nluc reporter destabilization hit call [1]: active: 1
